# Library screening results

A: 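Whole-cell assay for inhibitors of Mycobacterium tuberculosis growth, labelled Cornell in the record; the read-out is not stated. The concentration is filed as 10 mM, unlikely as a test dose, so the dose is not known. Higher means stronger inhibition (inferred from two other growth screens of the library). Of about 53,000 compounds tested this way, about 900 (1.7%) reached 50% or more in at least one test.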
B: 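Assay on Mycobacterium tuberculosis, filed only as a heat shock assay from Cornell; the read-out is not stated. The concentration is filed as 10 mM, unlikely as a test dose, so the dose is not known. Direction is inferred from retests: higher values go with stronger inhibition. Of about 69,000 compounds tested this way, about 930 (1.4%) reached 50% or more in at least one test.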

Each number is a percent effect as filed. The controls that fix the scale are not given in the record; negative values are as filed. This is an unselected part of the compounds tested. A dash means the value is not listed here; it may have been measured.

Compound | A | B
O=C(C1CCOCC1)N(CCc1ccccc1)C1CCOC1 (stereo unspecified) | -9.832% | -16.27%
Clc1ccc(CN2CCOC[C@H](Oc3cccnc3)C2)cc1 | 20.23% | -15.4%
CN(CCNC(=O)N1CCN(Cc2ccon2)CC1)c1ccccc1 | 18.96% | 1.913%
c1cc(CNCC2Cn3nncc3CO2)ccn1 (stereo unspecified) | 4.784% | 8.651%
O=C(O)[C@@H]1CN(C(=O)CCN2CCCCC2)C[C@H]1c1ccccc1 | - | -23.8%
Cc1cccc(CN2CCN(c3ncnc4[nH]cnc34)CC2CCO)n1 (stereo unspecified) | -31.76% | 1.259%
Cc1nn(C)c(N2CCOCC2)c1CNCc1nccs1 | - | 5.173%
O=C(Cn1cc(-c2ccccc2)ncc1=O)Nc1ccncc1 | 38.95% | 6.396%
O=C(c1cc(-c2cccnc2)[nH]n1)N1CCCC(Cc2ccccn2)C1 (stereo unspecified) | -28.87% | -2.857%
CC(=O)NCCc1ccc(C(=O)N2CCCC2c2cnn(C)c2)cc1 (stereo unspecified) | -5.51% | -6.922%
Cn1cc(N2CCC3(CCN(Cc4cccnc4)C3)C2=O)cn1.O=C(O)C(F)(F)F.O=C(O)C(F)(F)F (stereo unspecified) | -14.58% | -0.194%
O=C1c2cnc(N3CCCC3)nc2CN1CCc1ccc(Cl)cc1 | -6.466% | 5.842%
O=C1CN(C(=O)CN(CC2CCC2)CC(F)(F)F)CCN1 | 18% | -20.39%
CCOC(=O)N1CCC(Oc2ccc(C(F)(F)F)cn2)CC1 | - | 3.489%
COc1cccc(S(=O)(=O)NC(=O)COC2CCCC2)c1 | 7.593% | 7.961%
CC(NC(=O)N1CCC(n2cncn2)CC1)c1ccc(F)cc1 (stereo unspecified) | - | -1.113%
Cc1cc(C)nc(C2CCCN2c2ccnc(C)n2)n1 (stereo unspecified) | -39.06% | -13.37%
CCc1[nH]c2ccc(CNc3cncc(C(=O)N(C)C)n3)cc2c1C | 14.48% | 0.284%
CC(=O)N1CCC(C(=O)NC2CCc3nccn3C2)CC1 (stereo unspecified) | -4.558% | 3.58%
Cn1c(CN2CCOC(CNc3cccnn3)C2)nnc1C1CC1 (stereo unspecified) | - | 8.534%
CCN(CC1CCOCC1)C(=O)Cn1ccccc1=O | 24.26% | 0.01106%
COCCO[C@H]1CCN(C(=O)NC2CC2)[C@H]1Cc1cnn(C)c1 | 10.43% | -8.416%
Cc1cccc(NCc2nc(C)ccc2O)c1 | -8.374% | -25.2%
COc1ccc(C(C)NC(=O)Nc2nnc(C)s2)cc1OC (stereo unspecified) | - | 12.08%
Cc1csc2ncn(C(C)Cc3cccnc3)c(=O)c12 (stereo unspecified) | 22.34% | -11.76%
CCOC1CCCN(C(=O)c2ccccc2NCc2cccnc2)C1 (stereo unspecified) | -5.97% | -11.32%
Cc1nnc(NCCC(=O)N(C)Cc2ccccc2)c(C#N)c1C | - | 2.843%
CCC(C)NC(=O)NCCC(=O)N1CCN(c2ccccn2)CC1 (stereo unspecified) | 24.48% | 13.41%
CC(C)(C)CN1CCCC(c2nccnc2Nc2cnccn2)C1 (stereo unspecified) | 7.582% | -2.06%
Cc1ncc2c(n1)CN(CC(=O)Nc1c(C)nn(C)c1C)CC2 | -7.381% | -16.45%
CCc1cccc(NS(=O)(=O)c2cc3c(c(C(=O)O)c2)OCCO3)c1 | - | -5.895%
CCOc1ccc(NC(=O)c2[nH]c(C)cc2C)cc1CO | 102.6% | -34.18%
Cl.Fc1ccccc1CNc1ccnc(C2CCNCC2)c1 | -6.886% | -7.114%
CC(C)COCCCNC(=O)NC(C)c1ccc(-n2cncn2)cc1 (stereo unspecified) | 29.59% | -5.279%
COc1ccc2c(c1)CCCC2CC(=O)NCC(C)(C)C(=O)O (stereo unspecified) | - | -113.4%
O=C(NC1CC1)C1(Cc2ccccc2-c2ccncc2)CCOCC1 | -4.384% | -14.91%
CCc1nc(CC(=O)N2CCN(c3cnccn3)CC2)cs1 | - | -25.63%
Cn1cc(CCNC(=O)NC2CCS(=O)(=O)C2)cn1 (stereo unspecified) | 0.4883% | 10.96%
C[C@@H]1CN(Cc2nnc(-c3cccnc3)o2)CC[C@]1(C)O | -3.449% | -3.093%
COc1ccc(/C=C/CN2CCN(c3nccnc3C)CC2)cc1 | 24.21% | -29.95%
Br.O=C(O)c1csc(NCCc2ccccc2)n1 | 71.03% | 78.91%
O=S(=O)(C1CC1)N1CCC2(CN(c3ncccn3)C2)C1 | -36.31% | -7.661%
O=C(Cc1ccc(F)c(Br)c1)N1CCN(CCO)CC1 | 3.638% | -15.84%
CC(=O)Cc1c(C)nn(-c2cncc(C(N)=O)c2)c1C | 12.21% | 9.929%
CCCSCC(=O)N1CCC2(CC1)CC(c1ccccc1)CN(C)C2 (stereo unspecified) | - | 3.992%
O=C(C1CCCC1)N1CC2(CCN(C3COC3)C2)Cc2ccccc21 (stereo unspecified) | - | -16.82%
CN1CCN(C(=O)c2cnsn2)c2ccc(F)cc21 | 19.91% | 82.14%
[H][C@@]12CS(=O)(=O)C[C@]1([H])N(C(=O)NCC)CCN2Cc1nc2ccccc2[nH]1 | 36.26% | -25.12%
O=C(CCn1cc(Cl)cn1)Nc1nncs1 | - | -24.85%

The values are deposited in ChEMBL (CHEMBL3988442, “University of Dundee, Small-Polar-MMV Screening Library” (2021)).